PubChem BioAssay AID1259308 | NCATS, 2017
Purpose: 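Genes whose loss raises luciferase production in HEK293 cells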 (primary screen). System: human HEK293 embryonic kidney cells stably expressing firefly luciferase (HEK-CMV-Luc2-Hygro). Knock-down reagent: single siRNA against human genes, 0.8 pmol siRNA per well. Duration: 72 h. Read-out: 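Reporter luminescence and viable-cell signal on separate replicate plates, given as percent of non-targeting control and median/MAD z-scores, plus per-cell luciferase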. Reading the numbers: total luciferase, z-score: higher = more reporter protein produced. Hit rule: 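An siRNA counts as active if its total luciferase robust z-score exceeds 3; genes with two or more such siRNAs out of three were retested with fresh siRNAs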. Calls: active = raised luciferase; inactive = no rise.
Shown is one part, drawn at random, of about 59,000 deposited reagents. About 1,510 of them (2.6%) were called active. 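Calls use total luciferase alone and ignore viability, so some active siRNAs may act by altering cell number.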 The numbers tell different reagents against one gene apart. Further read-outs or replicates are left out here.

After knock-down of RNF141 (ring finger protein 141) #1 the results were total luciferase, z-score 0.182; inactive. RNF141 (ring finger protein 141) #2 gave total luciferase, z-score 1.22; inactive. Against RNF141 (ring finger protein 141) #3, the values are total luciferase, z-score -0.636; inactive. For LARP1 (La ribonucleoprotein 1, translational regulator) #1, the entry reads total luciferase, z-score -0.2; inactive. Against LARP1 (La ribonucleoprotein 1, translational regulator) #2, the entry reads total luciferase, z-score 0.101; inactive. Silencing of LARP1 (La ribonucleoprotein 1, translational regulator) #3 resulted in: total luciferase, z-score -2.36; inactive.

CWF19L2 (CWF19 like cell cycle control factor 2) #1 showed total luciferase, z-score 1.04; inactive. Against CWF19L2 (CWF19 like cell cycle control factor 2) #2, the entry reads total luciferase, z-score 0.894; inactive. For CWF19L2 (CWF19 like cell cycle control factor 2) #3, the values are total luciferase, z-score 1.91; inactive. Against DDIAS (DNA damage induced apoptosis suppressor) #1 the deposit lists total luciferase, z-score 0.781; inactive. With knock-down of DDIAS (DNA damage induced apoptosis suppressor) #2, the screen gave total luciferase, z-score 0.202; inactive. Silencing of DDIAS (DNA damage induced apoptosis suppressor) #3 came out at: total luciferase, z-score -1.68; inactive.

Depletion of MROH2A (maestro heat like repeat family member 2A) #1 resulted in: total luciferase, z-score -0.113; inactive. MROH2A (maestro heat like repeat family member 2A) #2 scored total luciferase, z-score -0.0233; inactive. Depletion of MROH2A (maestro heat like repeat family member 2A) #3 came out at: total luciferase, z-score -1.35; inactive. ARPC5 (actin related protein 2/3 complex subunit 5) #1 showed total luciferase, z-score 1.76; inactive. Against ARPC5 (actin related protein 2/3 complex subunit 5) #2, the values are total luciferase, z-score 0.09; inactive. For ARPC5 (actin related protein 2/3 complex subunit 5) #3, the entry reads total luciferase, z-score -0.538; inactive.

With knock-down of SLC2A7 #1, the screen gave total luciferase, z-score -0.87; inactive. Knock-down of SLC2A7 #2 came out at: total luciferase, z-score -0.262; inactive. Silencing of SLC2A7 #3 resulted in: total luciferase, z-score 0.916; inactive. GRB14 (growth factor receptor bound protein 14) #1 scored total luciferase, z-score 0.426; inactive. Knock-down of GRB14 (growth factor receptor bound protein 14) #2 came out at: total luciferase, z-score 0.0927; inactive. GRB14 (growth factor receptor bound protein 14) #3 showed total luciferase, z-score -0.625; inactive.

Depletion of BRINP2 (BMP/retinoic acid inducible neural specific 2) #1 resulted in: total luciferase, z-score 0.121; inactive. Knock-down of BRINP2 (BMP/retinoic acid inducible neural specific 2) #2 came out at: total luciferase, z-score 1.74; inactive. Knock-down of BRINP2 (BMP/retinoic acid inducible neural specific 2) #3 gave: total luciferase, z-score -0.525; inactive. After knock-down of ASIP (agouti signaling protein) #1, the screen gave total luciferase, z-score -2.65; inactive. ASIP (agouti signaling protein) #2 gave total luciferase, z-score -0.0429; inactive. Silencing of ASIP (agouti signaling protein) #3 gave: total luciferase, z-score 1.6; inactive.

After knock-down of ANAPC7 (anaphase promoting complex subunit 7) #1 the results were total luciferase, z-score -0.188; inactive. Silencing of ANAPC7 (anaphase promoting complex subunit 7) #2 gave: total luciferase, z-score -1.44; inactive. Silencing of ANAPC7 (anaphase promoting complex subunit 7) #3 resulted in: total luciferase, z-score -1.19; inactive. For CTC1 (CST telomere replication complex component 1) #1, the values are total luciferase, z-score -0.181; inactive. For CTC1 (CST telomere replication complex component 1) #2, the entry reads total luciferase, z-score 2.82; inactive. After knock-down of CTC1 (CST telomere replication complex component 1) #3 the results were total luciferase, z-score -0.532; inactive.

With knock-down of TEX264 (testis expressed 264, ER-phagy receptor) #1 the results were total luciferase, z-score 2.27; inactive. TEX264 (testis expressed 264, ER-phagy receptor) #2 showed total luciferase, z-score -0.254; inactive. With knock-down of TEX264 (testis expressed 264, ER-phagy receptor) #3 the results were total luciferase, z-score -1.69; inactive. Against ZMYND11 (zinc finger MYND-type containing 11) #1 the deposit lists total luciferase, z-score 0.514; inactive. Against ZMYND11 (zinc finger MYND-type containing 11) #2, the entry reads total luciferase, z-score -1.38; inactive. Knock-down of ZMYND11 (zinc finger MYND-type containing 11) #3 gave: total luciferase, z-score 0.436; inactive.

7 of these entries in another layout.
DDIAS (DNA damage induced apoptosis suppressor) #1
- total luciferase, z-score: 0.781
- call: inactive

DDIAS (DNA damage induced apoptosis suppressor) #2
- total luciferase, z-score: 0.202
- call: inactive

DDIAS (DNA damage induced apoptosis suppressor) #3
- total luciferase, z-score: -1.68
- call: inactive

MROH2A (maestro heat like repeat family member 2A) #1
- total luciferase, z-score: -0.113
- call: inactive

MROH2A (maestro heat like repeat family member 2A) #2
- total luciferase, z-score: -0.0233
- call: inactive

MROH2A (maestro heat like repeat family member 2A) #3
- total luciferase, z-score: -1.35
- call: inactive

ARPC5 (actin related protein 2/3 complex subunit 5) #1
- total luciferase, z-score: 1.76
- call: inactive
